Source: patent publication US20240059769A1
Substitutions are numbered along the chain they refer to. Results are given in words; binding and its absence hold for the method and conditions named. Some entries that bind do so weakly or less than the wild type.

Protein sequences, listed by entry. Tags and fused reporters are not part of them. Lines headed by an entry give the natural chain unless they say otherwise; changes in a name come on top. Chains listed by the source or under a name are the forms on record and can include a tag or linker.
UniProt P05112: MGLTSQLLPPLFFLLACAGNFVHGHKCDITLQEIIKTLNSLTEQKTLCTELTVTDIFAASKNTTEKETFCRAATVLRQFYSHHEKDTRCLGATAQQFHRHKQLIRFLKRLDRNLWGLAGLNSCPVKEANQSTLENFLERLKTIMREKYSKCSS
recombinant cynomolgus monkey IL-13 (Q0PW92, form named): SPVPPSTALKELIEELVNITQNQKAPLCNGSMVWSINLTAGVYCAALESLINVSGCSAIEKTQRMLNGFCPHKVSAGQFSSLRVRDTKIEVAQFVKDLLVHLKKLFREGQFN

What was measured:
[1] = molecular target: recombinant human IL-13 (human) (UniProt P35225); experiment: summary of Examples 3-4
[2] = molecular target: recombinant human IL-13 (human) (UniProt P35225); experiment: competition ELISA, hIL-13 coated
[3] = molecular target: recombinant human IL-13 (human) (UniProt P35225); experiment: SPR and ELISA, summing-up sentence
[4] = molecular target: recombinant human IL-13 (human) (UniProt P35225); experiment: specificity ELISA, 250 ng ligand coated, 100 nM IgG
[5] = molecular target: recombinant human IL-13 (human) (UniProt P35225); experiment: competition ELISA, 20 nM IgG, soluble ligand 0.78-200 nM
[6] = molecular target: recombinant human IL-13 (human) (UniProt P35225); experiment: SPR (Biacore T200), antibody captured, hIL-13 as analyte
[7] = molecular target: recombinant human IL-13 (human) (UniProt P35225); experiment: ELISA, 250 ng coated ligand per well, 100 nM IgG, anti-human Fc-HRP
[8] = molecular target: cynomolgus monkey (cyno) TSLP (cynomolgus monkey); experiment: ELISA, plate coated with cyno TSLP, IgG titrated, anti-human Fc-HRP
[9] = molecular target: IL-4 (Homo sapiens (Human)) (UniProt P05112); experiment: specificity ELISA, 250 ng ligand coated, 100 nM IgG
[10] = molecular target: IL-4 (Homo sapiens (Human)) (UniProt P05112); experiment: ELISA, 250 ng coated ligand per well, 100 nM IgG, anti-human Fc-HRP
[11] = molecular target: recombinant cynomolgus monkey IL-13 (cynomolgus monkey) (UniProt Q0PW92); experiment: ELISA, plate coated with cyno IL-13, IgG 1-1000 nM, anti-human Fc-HRP
[12] = molecular target: recombinant human IL-13 (human) (UniProt P35225); experiment: cross-competition ELISA: 20 nM antibody pre-incubated with soluble hTSLP (0.78-200 nM), then on a plate coated with hIL-13; bound IgG detected with anti-human Fc-HRP

Measured: binding

B1: BDG33.023 (antibody, V domains shown)
VH: QMQLVESGGGVVQPGRSLRLSCAASGFAFRTYGMHWVRQAPGKGLEWVAVIWYDGSNTHYADSVKGRFTITRDNSKNTLNLQMNSLRAEDTAVYYCARAPQWYLSAEAFDLWGQGTMVTVSS
VL: SYVLTQPPSVSVAPGQTARITCGGNLIGSKLVHWYQQKPGQAPVLVVYDDSDRPSRIPERFSGSNSGNTATLTISRVEAGDEADYYCQVWDHSSDHVVFGGGTKLTVL
not listed: [9] | [10] | [11] | [12]
binds: all other assays above

B2: BDG33.025 (antibody, V domains shown)
VH: B1 VH with A28T, V50D, T58K, S105V, A108P
VL: B1 VL with R56L, H92S, H96G
not listed: [4] | [5] | [8]
binds: all other assays above
